Data taken from PubChem BioAssay AID504749, deposited by NCATS (2011).

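A panel of P. falciparum strains inside erythrocytes is exposed to compounds for three days, then a DNA-binding dye reports the amount of parasite DNA.
Each compound was titrated across a series from about 0.000037 to 29 µM.
The number is the fitted AC50, the concentration giving a half-maximal change in signal; a lower value means higher potency, whether the curve shows a decrease or an increase.
Calls follow the curve class and fit quality: every row here is inconclusive, covering signal-raising curves and weak, poorly fitted, partial or highest-dose-only inhibition curves.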

Values are in µM.
Every entry below has the call inconclusive.
These entries are mostly ones the record files as inconclusive; other results of the assay are not listed here.
A potency from a partial, single-point or poor curve is only a rough figure.
The first word of each remark tells which way the curve ran; it can be opposite to the aim of the assay.

{"smiles": "CCN(CC)CCCC(C)Nc1cc(/C=C/c2ccccc2Cl)nc2cc(Cl)ccc12", "stereo": "configuration not stated", "tested on / at": "CP192", "potency (µM)": "15.1", "curve as filed": "inhibitor, single point"}
{"smiles": "CCN(CC)CCCC(C)Nc1cc(/C=C/c2ccccc2Cl)nc2cc(Cl)ccc12", "stereo": "configuration not stated", "tested on / at": "CP262", "potency (µM)": "2.133", "curve as filed": "inhibitor, single point"}
{"smiles": "CCN(CC)CCCC(C)Nc1cc(/C=C/c2ccccc2Cl)nc2cc(Cl)ccc12", "stereo": "configuration not stated", "tested on / at": "CP315", "potency (µM)": "16.94", "curve as filed": "inhibitor, single point"}
{"smiles": "CCN(CC)CCCC(C)Nc1cc(/C=C/c2ccccc2Cl)nc2cc(Cl)ccc12", "stereo": "configuration not stated", "tested on / at": "CP266", "potency (µM)": "13.46", "curve as filed": "inhibitor, partial curve, poor fit"}
{"smiles": "Cc1cc(C(=O)NCCc2ccc(S(=O)(=O)NC(=O)NN3CCCCCC3)cc2)no1", "tested on / at": "DIV14", "potency (µM)": "19.01", "curve as filed": "inhibitor, single point"}
{"smiles": "Cc1cc(C(=O)NCCc2ccc(S(=O)(=O)NC(=O)NN3CCCCCC3)cc2)no1", "tested on / at": "DIV17", "potency (µM)": "12", "curve as filed": "inhibitor, single point"}
{"smiles": "Cc1cc(C(=O)NCCc2ccc(S(=O)(=O)NC(=O)NN3CCCCCC3)cc2)no1", "tested on / at": "CP297", "potency (µM)": "0.0013", "curve as filed": "activator"}
{"smiles": "Cc1cc(C(=O)NCCc2ccc(S(=O)(=O)NC(=O)NN3CCCCCC3)cc2)no1", "tested on / at": "GB4", "potency (µM)": "15.1", "curve as filed": "inhibitor, single point"}
{"smiles": "Cc1cc(C(=O)NCCc2ccc(S(=O)(=O)NC(=O)NN3CCCCCC3)cc2)no1", "tested on / at": "PC26", "potency (µM)": "16.94", "curve as filed": "inhibitor, partial curve, poor fit"}
{"smiles": "CC(=O)Nc1c(I)c(C(=O)O)c(I)c(N(C)C(C)=O)c1I", "tested on / at": "ECU", "potency (µM)": "3.162", "curve as filed": "inhibitor, single point"}
{"smiles": "CC(=O)Nc1c(I)c(C(=O)O)c(I)c(N(C)C(C)=O)c1I", "tested on / at": "AS120", "potency (µM)": "3.981", "curve as filed": "inhibitor, single point"}
{"smiles": "c1ccc(OCc2ccc(CCCN3CCOCC3)cc2)cc1", "tested on / at": "PC49", "potency (µM)": "10", "curve as filed": "inhibitor, single point"}
{"smiles": "CO/N=C(/C(=O)N[C@@H]1C(=O)N2C(C(=O)O)=C(CSc3cnns3)CS[C@H]12)c1csc(N)n1", "tested on / at": "TAB109", "potency (µM)": "3.162", "curve as filed": "inhibitor, single point"}
{"smiles": "CO/N=C(/C(=O)N[C@@H]1C(=O)N2C(C(=O)O)=C(CSc3cnns3)CS[C@H]12)c1csc(N)n1", "tested on / at": "CP266", "potency (µM)": "2.686", "curve as filed": "activator, single point"}
{"smiles": "O=NN(CCCl)C(=O)NCCCl", "tested on / at": "CP335", "potency (µM)": "10.69", "curve as filed": "inhibitor, partial curve, poor fit"}
{"smiles": "O=NN(CCCl)C(=O)NCCCl", "tested on / at": "W2", "potency (µM)": "19.01", "curve as filed": "inhibitor, single point"}
{"smiles": "O=NN(CCCl)C(=O)NCCCl", "tested on / at": "CP286", "potency (µM)": "17.78", "curve as filed": "inhibitor, single point"}
{"smiles": "O=NN(CCCl)C(=O)NCCCl", "tested on / at": "GB4", "potency (µM)": "21.33", "curve as filed": "inhibitor, partial curve, poor fit"}
{"smiles": "O=NN(CCCl)C(=O)NCCCl", "tested on / at": "ICS", "potency (µM)": "17.78", "curve as filed": "inhibitor, single point"}
{"smiles": "COc1cccc2c1C(=O)c1c(O)c3c(c(O)c1C2=O)C[C@@](O)(C(C)=O)C[C@@H]3O[C@H]1C[C@H](N)[C@H](O)[C@H](C)O1", "tested on / at": "CP262", "potency (µM)": "4.256", "curve as filed": "inhibitor, single point"}
{"smiles": "CCOc1ccc(NC(C)=O)cc1", "tested on / at": "CP335", "potency (µM)": "1.901", "curve as filed": "inhibitor, single point"}
{"smiles": "CCOc1ccc(NC(C)=O)cc1", "tested on / at": "CP215", "potency (µM)": "0.0015", "curve as filed": "activator, full curve, poor fit"}
{"smiles": "OC(Cn1cncn1)(Cn1cncn1)c1ccc(F)cc1F", "tested on / at": "CP269", "potency (µM)": "0.0008", "curve as filed": "activator"}
{"smiles": "OC(Cn1cncn1)(Cn1cncn1)c1ccc(F)cc1F", "tested on / at": "DIV14", "potency (µM)": "4.256", "curve as filed": "activator, partial curve, poor fit"}
{"smiles": "OC(Cn1cncn1)(Cn1cncn1)c1ccc(F)cc1F", "tested on / at": "parasite line B", "potency (µM)": "15.85", "curve as filed": "inhibitor, single point"}

For reference, 2 entries once more:

| SMILES | tested on / at | potency (µM) | curve as filed |
|---|---|---|---|
| `Cc1cc(C(=O)NCCc2ccc(S(=O)(=O)NC(=O)NN3CCCCCC3)cc2)no1` | DIV14 | 19.01 | inhibitor, single point |
| `O=NN(CCCl)C(=O)NCCCl` | CP335 | 10.69 | inhibitor, partial curve, poor fit |